Test results from publication PMC10644448.
No constants are given. Whether binding was seen depends on the method and setting. Binding seen in cells or lysates may run through a third protein. Some results given as binding are weak or reduced against the parent protein; the word gives no strength.

Amino acid sequences for entries named in this document (tags omitted). A change or cut given only in a name is not applied to a line headed by its entry. Chains listed by the source or under a name are the forms on record and can include a tag or linker.
UniProt P40692: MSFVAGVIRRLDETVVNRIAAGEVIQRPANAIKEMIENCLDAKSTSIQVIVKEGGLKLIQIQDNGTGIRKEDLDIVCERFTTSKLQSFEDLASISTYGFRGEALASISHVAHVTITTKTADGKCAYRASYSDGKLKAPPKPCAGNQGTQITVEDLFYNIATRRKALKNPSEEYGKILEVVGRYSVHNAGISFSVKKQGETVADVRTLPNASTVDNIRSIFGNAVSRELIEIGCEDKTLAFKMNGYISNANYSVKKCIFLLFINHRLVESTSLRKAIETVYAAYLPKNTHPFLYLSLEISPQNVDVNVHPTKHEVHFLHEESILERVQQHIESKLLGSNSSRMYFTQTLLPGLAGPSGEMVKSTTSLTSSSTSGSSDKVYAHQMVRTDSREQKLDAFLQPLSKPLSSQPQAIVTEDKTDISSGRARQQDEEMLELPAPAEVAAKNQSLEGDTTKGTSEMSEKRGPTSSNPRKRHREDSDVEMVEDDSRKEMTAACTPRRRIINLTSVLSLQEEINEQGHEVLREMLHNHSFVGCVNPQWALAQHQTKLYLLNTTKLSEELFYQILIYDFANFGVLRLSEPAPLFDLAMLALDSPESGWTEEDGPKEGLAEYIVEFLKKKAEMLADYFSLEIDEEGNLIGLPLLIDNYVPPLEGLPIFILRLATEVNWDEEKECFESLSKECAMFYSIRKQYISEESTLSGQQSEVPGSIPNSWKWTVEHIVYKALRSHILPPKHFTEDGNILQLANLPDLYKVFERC
endogenous MBD4 (HeLa nuclear extract) (O95243-2, form named): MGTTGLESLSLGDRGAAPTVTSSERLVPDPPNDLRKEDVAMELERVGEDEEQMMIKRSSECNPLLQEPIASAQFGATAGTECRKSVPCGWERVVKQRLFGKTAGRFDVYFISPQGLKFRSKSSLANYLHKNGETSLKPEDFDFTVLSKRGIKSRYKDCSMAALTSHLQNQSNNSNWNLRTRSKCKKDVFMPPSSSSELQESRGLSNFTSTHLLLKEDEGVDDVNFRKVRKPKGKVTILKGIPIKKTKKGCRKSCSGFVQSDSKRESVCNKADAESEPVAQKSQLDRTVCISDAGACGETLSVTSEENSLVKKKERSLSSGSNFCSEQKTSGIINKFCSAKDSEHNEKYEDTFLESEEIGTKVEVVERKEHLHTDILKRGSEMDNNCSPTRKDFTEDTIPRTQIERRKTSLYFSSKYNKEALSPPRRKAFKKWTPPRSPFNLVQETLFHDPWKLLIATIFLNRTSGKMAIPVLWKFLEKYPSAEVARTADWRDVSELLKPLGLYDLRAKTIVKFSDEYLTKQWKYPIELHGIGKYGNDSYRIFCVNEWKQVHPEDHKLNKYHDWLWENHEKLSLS

Biological target: endogenous MLH1 (HeLa) (human (endogenous in HeLa)) (UniProt P40692)
Test: co-IP; immunoprecipitation of endogenous MBD4 or endogenous MLH1 from non-tagged HeLa cell nuclear extracts with specific antibodies; Western blot

Q: For “endogenous MBD4 (HeLa nuclear extract) (from UniProt O95243-2 1-574)”, which binding is on record?
A: The binding was “binds”.
